# Assay results: PubChem BioAssay AID1487 (National Center for Advancing Translational Sciences (NCATS), 2009)
# The list shows a part of the results. The main result of the screen is listed elsewhere. These columns were measured beside it and carry no call. The list favours compounds with an active or inconclusive main result. Potencies come from curve fits of mixed quality, noted in brackets.
# Assay: qHTS Assay for Modulators of Lamin A Splicing
# Conditions: HeLa LMNA splicing GFP/RFP minigene ratio, 48 h
# Method in brief: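 Read-out is the ratio of GFP to DsRed2 object intensity, acquired by 488 nm laser-scanning cytometry on HeLa lamin A-EGFP minigene reporter cells. Compound incubation 48 hrs at 37 °C in Opti-MEM with 2% FBS; DMSO 0.5% final.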
# [1] = measured here: GFP splicing reporter channel
# [2] = measured here: RFP viability control channel
Compound,AC50 [1],AC50 [2]
NCCNCCNCCN,"12.6 µM [falling, partial curve]","0.501 µM [falling, single point]"
CCOc1ccc(CC(=O)NNC(=S)NC2CCCCC2)cc1OCC,"11.2 µM [rising, single point]","11.2 µM [rising, single point]"
NC(=O)CSc1nc2ccc(NC(=O)COc3ccccc3)cc2s1,,"0.2 µM [falling, full curve, poor fit]"
CN(C)c1cc[n+](CC(=O)Nc2c(Cl)cc(Cl)cc2Cl)cc1,,"0.447 µM [rising, full curve]"
O=C(Cn1nnc(-c2ccccc2Cl)n1)N1CCN(S(=O)(=O)c2ccc(Cl)cc2)CC1,,"35.5 µM [rising, single point]"
CC(C)=C1C2CCC1C(C(=O)Nc1sc(C)c(-c3ccc(C(C)C)cc3)c1C(N)=O)C2C(=O)O (stereo not given),,"17.8 µM [rising, partial curve, poor fit]"
COc1ccc2cc3cc(C(=O)NCc4cccs4)oc3nc2c1,"15.8 µM [rising, partial curve, poor fit]",
CC1=CC(=O)C(C(C)C)=C/C1=N\OC(=O)c1cccc2nc(C)oc12,,"12.6 µM [rising, single point]"
Cc1ccccc1NC(=O)c1sc(NC(=O)COc2ccccc2)c(C#N)c1C,,"35.5 µM [rising, single point]"
C=CCNc1ncnc2c1[nH]c1ccccc12,,"12.6 µM [rising, partial curve]"
COC(=O)c1ccccc1NC(=O)CSc1nnc(-c2ccncc2)o1,,"0.0112 µM [rising, full curve, poor fit]"
CC(=O)c1cccc(NC(=O)CSCc2ccc(Br)cc2)c1,,"20 µM [rising, single point]"
COc1ccc(Nc2nc(N3CCCC3)c3ccccc3n2)cc1,,"12.6 µM [rising, partial curve]"
O=S(=O)(c1cccc(S(=O)(=O)N2CCC(Cc3ccccc3)CC2)c1)N1CCOCC1,,"15.8 µM [rising, single point]"
Nc1nc(-c2ccccc2)nn1S(=O)(=O)c1ccccc1,"0.282 µM [rising, full curve, poor fit]",
COc1ccc(COc2cc(-c3cccc(OC)c3)nc3ccc(N)cc23)cc1,,"5.62 µM [rising, single point]"
Cc1ccc(/C(=C/CN2CCCC2)c2ccccn2)cc1,"8.91 µM [rising, partial curve, poor fit]","4.47 µM [rising, partial curve, poor fit]"
CCS(=O)(=O)c1ccc2oc(SCC(=O)NCCC3=CCCCC3)nc2c1,,"14.1 µM [rising, single point]"
COc1ccc(N2CCN(C(=O)C(C)(C)Oc3ccc(Cl)cc3)CC2)cc1,,"35.5 µM [rising, single point]"
CCc1n[nH]c2c1/C(=N\O)CC(c1ccccc1)C2 (stereo not given),,"11.2 µM [rising, partial curve]"

# Shown with bars between the fields: part of the list above
Compound | AC50 [1] | AC50 [2]
CCOc1ccc(CC(=O)NNC(=S)NC2CCCCC2)cc1OCC | 11.2 µM [rising, single point] | 11.2 µM [rising, single point]
NC(=O)CSc1nc2ccc(NC(=O)COc3ccccc3)cc2s1 |  | 0.2 µM [falling, full curve, poor fit]
CN(C)c1cc[n+](CC(=O)Nc2c(Cl)cc(Cl)cc2Cl)cc1 |  | 0.447 µM [rising, full curve]
O=C(Cn1nnc(-c2ccccc2Cl)n1)N1CCN(S(=O)(=O)c2ccc(Cl)cc2)CC1 |  | 35.5 µM [rising, single point]
CC(C)=C1C2CCC1C(C(=O)Nc1sc(C)c(-c3ccc(C(C)C)cc3)c1C(N)=O)C2C(=O)O (stereo not given) |  | 17.8 µM [rising, partial curve, poor fit]

# Later entries:

Compound,AC50 [1],AC50 [2]
COc1cc(-c2ccno2)ccc1S(=O)(=O)N1CCN(c2cccc(Cl)c2)CC1,,"0.00447 µM [rising, full curve, poor fit]"
Cc1cc(C)n(CC(=O)c2ccccc2)c(=O)c1C#N,,"0.00316 µM [falling, full curve, poor fit]"
CC(C)OC(=O)c1cc(NC(=O)C2C3CCC(O3)C2C(=O)O)cc(C(=O)OC(C)C)c1 (stereo not given),"35.5 µM [rising, single point]","35.5 µM [rising, single point]"
COC(=O)C(C)(C)ONC(=O)Nc1ccc(Br)cc1,,"35.5 µM [rising, single point]"
O=C(c1ccc(Br)o1)N(Cc1ccccc1)Cc1ccccc1,,"22.4 µM [rising, single point]"
CCn1c(SC)nc2c([nH]c3ccccc32)c1=O,"0.00631 µM [falling, full curve, poor fit]",
Cc1ccc(S(=O)(=O)N(C)C)cc1NC(=O)c1cncc(Br)c1,"35.5 µM [rising, single point]","31.6 µM [rising, single point]"
O=C(CNC(=O)c1ccc2c(c1)OCO2)N/N=C(Br)/C=C/c1ccccc1,,"3.98 µM [rising, full curve]"
CCOC(=O)c1c(S(=O)(=O)N2CCC(C(=O)Nc3ccc(C)cn3)CC2)c(C)n(C)c1C,"0.00501 µM [rising, full curve, poor fit]",
Cc1ccc([N+](=O)[O-])cc1NCC(=O)NN,,"35.5 µM [rising, single point]"
CCc1ccc(C(C)NC(=O)/C(C#N)=C\c2cn[nH]c2-c2ccccc2)cc1 (stereo not given),"11.2 µM [rising, partial curve]","25.1 µM [rising, single point]"
CC(C)c1ccc(C2NC(=S)NC3=C2C(=O)CCC3)cc1 (stereo not given),,"5.62 µM [rising, partial curve, poor fit]"
CC(C)Cn1c(SC(C)C(=O)Nc2ccc3c(c2)OCCO3)nc2ccccc2c1=O (stereo not given),"12.6 µM [rising, single point]","11.2 µM [rising, single point]"
CNC(=O)COC(=O)CCC(=O)c1cccs1,"0.251 µM [falling, full curve]","0.501 µM [falling, full curve]"
CCOc1cc(C2C3=C(CCCC3=O)Nc3ccc4ncccc4c32)ccc1O (stereo not given),,"0.00398 µM [falling, full curve, poor fit]"
COc1ccccc1NC(=S)NCCSc1ccc(Cl)cc1,"22.4 µM [rising, single point]","35.5 µM [rising, single point]"
CC1CCCCN1C(=O)CSc1nc2ccccc2nc1Cc1ccccc1 (stereo not given),"12.6 µM [falling, single point]",
CCOc1ccc(N2C(=O)c3[nH]nc(-c4ccccc4)c3C2c2ccc(O)c(OC)c2)cc1 (stereo not given),"35.5 µM [falling, partial curve, poor fit]",
COC(=O)c1cccc(NC(=O)CN2CCN(c3ccc(OC)cc3)CC2)c1,,"22.4 µM [rising, single point]"
Cc1cccc(Nc2ncnc3c2cnn3C)c1,,"0.316 µM [falling, full curve, poor fit]"

Compound,AC50 [1],AC50 [2]
O=c1c2[nH]c3ccc(F)cc3c2ncn1CCN1CCN(Cc2ccccc2)CC1,,"5.62 µM [rising, partial curve, poor fit]"
CCN(CC(=O)NC1CCS(=O)(=O)C1)C(=O)/C=C/c1cccs1 (stereo not given),"35.5 µM [falling, single point]",
COc1cc(C(=O)N2CCN(S(=O)(=O)c3ccc(C)cc3)CC2)ccc1OCc1c(C)noc1C,"8.91 µM [rising, partial curve]","14.1 µM [rising, single point]"
Cc1ccc(N/C=C(\[N+](=O)[O-])S(=O)(=O)c2ccccc2)cc1,"7.94 µM [falling, partial curve, poor fit]",
COc1ccc(C(C(=O)NC2CCCCC2)N(C(=O)CCl)c2ccc(Cl)cc2)cc1 (stereo not given),"35.5 µM [falling, single point]","35.5 µM [falling, single point]"
c1ccc2c(c1)[nH]c1c(N3CCCC3)ncnc12,,"15.8 µM [rising, single point]"
COc1ccc(NC(=O)CSc2ccc(F)cc2)cc1S(=O)(=O)N1CCCCC1,,"14.1 µM [rising, single point]"
COc1ccccc1NS(=O)(=O)c1ccc2oc(SCc3ccc(C#N)cc3)nc2c1,,"12.6 µM [rising, partial curve]"
Cc1nc(N2CCN(C(=O)c3ccco3)CC2)c2c3c(sc2n1)CCC3,"35.5 µM [rising, single point]","35.5 µM [rising, single point]"
O=S(=O)(c1ccccc1)c1cccc(S(=O)(=O)N2CCCCC2)c1,,"31.6 µM [rising, single point]"
Nc1c(C(=O)NCc2ccco2)sc2nc(N3CCOCC3)c3c(c12)CCCC3,"35.5 µM [rising, single point]","35.5 µM [rising, single point]"
CCC(C)(C)NC(=O)C(c1ccccc1F)N(Cc1ccco1)C(=O)Cn1nnc2ccccc21 (stereo not given),"7.94 µM [rising, partial curve]","7.08 µM [rising, partial curve, poor fit]"
N#CC1=C(N)NC(SCc2ccc(Cl)cc2)=C(C#N)C12CCCCC2,"12.6 µM [rising, partial curve]","22.4 µM [rising, partial curve]"
CC(C)(C)c1cc(C(=O)Nc2ccccc2)ccn1,,"15.8 µM [rising, partial curve]"
Cc1nn2c(NCCCN3CCOCC3)c3c(nc2c1-c1ccccc1)CCC3,"0.316 µM [rising, full curve]","0.316 µM [rising, full curve]"
COc1ccccc1Nc1ncc2c(n1)CCN(CC(C)C)C2,,"12.6 µM [rising, partial curve]"
COc1cccc(Nc2nc(-c3cccs3)nc3ccccc23)c1,"20 µM [rising, single point]","28.2 µM [rising, single point]"
Cc1cccc(COCC(Cc2ccccc2)N2CCN(C(=O)c3cccc(C)c3)CCC2=O)c1 (stereo not given),,"10 µM [rising, partial curve, poor fit]"
